# At least one structure is not confirmed: it was looked up by name or label, or the drawing left a doubt.
# Test system: BT+AG+ hPGCLC (d6 hPGCLCs from 585B1 BTAG hiPSC)
# Assay: hPGCLC expansion culture on m220 feeders with combinations of chemical substances and cytokines; BT+AG+ cells counted by FACS
# Format: cell-based, human
# Settings: 10 days of culture, GMEM, 15% KSR, 2.5% FBS, 100 ng/ml SCF, forskolin 10 μM, rolipram 10 μM, cyclosporin A 5 μM, LIF 10 ng/ml, EGF 50 ng/ml, bFGF 20 ng/ml
# Procedure: FIG. 1B Exploration of conditions for expanding hPGCLC in vitro. (B) (Left) Scheme for exploration of conditions for BT^+AG^+ cell proliferation. (Right) Plot showing the number of BT^+AG^+ cells after 10 days of culture under the indicated conditions determined by FACS analysis. (Blue) Combination of chemical substances [forskolin (10 μM), rolipram (10 μM), and cyclosporin A (5 μM)] used for BT^+AG^+ cell proliferation. (Yellow) Combination of cytokines [LIF (10 ng/ml), EGF (50 ng/ml), and basic fibroblast growth factor (bFGF: 20 ng/ml)] used for BT^+AG^+ cell proliferation. About 5000 hPGCLCs were used as the starting cell population. […] Conditions for mPGCLC expansion: green. Conditions without additional chemical substance/cytokine: gray.
# In order to examine the influence of cytokine and/or chemical substances on hPGCLC proliferation, hPGCLC was treated with MMC in GK15 containing 2.5% FBS and 100 ng/mL SCF, and supplemented with cytokine and/or chemical substances [10 ng/mL LIF; 50 ng/mL EGF; 20 ng/mL bFGF; 10 μM forskolin; 10 μM rolipram; 5 μM cyclosporin A (SIGMA, 30024)], and the cells were passaged every 10 days [see the section of Fluorescence activated cell sorting]. On the day of passage, about 5.0×10^3 cells were plated on 24-well plates (0.5 mL of medium containing 10 μM Y27632), and 0.5 mL of medium free of Y27632 was 0.5 mL added the next day. […]
compound,measurement,value
C=C[C@@]1(C)CC(=O)[C@]2(O)[C@@]3(C)[C@@H](O)CCC(C)(C)[C@@H]3[C@H](O)[C@H](OC(C)=O)[C@@]2(C)O1 [forskolin],effect on expansion of the number of BT+AG+ cells,contributes to an expansion of the number of BT^+AG^+ cells more than the addition of either forskolin+rolipram or forskolin+cyclosporin A
